Source: paper doi:10.1101/725697
Results are given in words; binding and its absence hold for the method and conditions named. Binding seen in cells or lysates may run through a third protein. A result given as binding can be weak or reduced; the word gives no strength. Where a sequence is shown, tags or fusion partners need not be part of it.

Molecular target: GpRbp-1 fused to SCFP3A amino acids 1-173 (pN:Rbp1) (Globodera pallida)
Test: split reporter

Binder | binding
Arabidopsis E2 SUMO conjugating enzyme SCE1 fused to SCFP3A amino acids 156-239 (enzyme, UniProt Q42551 1-160) MASGIARGRLAEERKSWRKNHPHGFVAKPETGQDGTVNLMVWHCTIPGKAGTDWEGGFFPLTMHFSEDYPSKPPKCKFPQGFFHPNVYPSGTVCLSILNEDYGWRPAITVKQILVGIQDLLDTPNPADPAQTDGYHLFCQDPVEYKKRVKLQSKQYPALV | binds
Arabidopsis SUMO3 fused to SCFP3A amino acids 156-239 (protein, UniProt Q9FLP5 1-111) MSNPQDDKPIDQEQEAHVILKVKSQDGDEVLFKNKKSAPLKKLMYVYCDRRGLKLDAFAFIFNGARIGGLETPDELDMEDGDVIDACRAMSGGLRANQRQWSYMLFDHNGL | binds

Now from value to binder:

binding | Binder
binds | Arabidopsis SUMO5 fused to SCFP3A amino acids 156-239 (protein, UniProt Q8VZI7 1-108) MVSSTDTISASFVSKKSRSPETSPHMKVTLKVKNQQGAEDLYKIGTHAHLKKLMSAYCTKRNLDYSSVRFVYNGREIKARQTPAQLHMEEEDEICMVMELGGGGPYTP
binds | AtSIZ1 fused to SCFP3A amino acids 156-239 (pC:AtSIZ1) (enzyme, UniProt Q680Q4 1-884) MDLEANCKEKLSYFRIKELKDVLTQLGLSKQGKKQELVDRILTLLSDEQAARLLSKKNTVAKEAVAKLVDDTYRKMQVSGASDLASKGQVSSDTSNLKVKGEPEDPFQPEIKVRCVCGNSLETDSMIQCEDPRCHVWQHVGCVILPDKPMDGNPPLPESFYCEICRLTRADPFWVTVAHPLSPVRLTATTIPNDGASTMQSVERTFQITRADKDLLAKPEYDVQAWCMLLNDKVLFRMQWPQYADLQVNGVPVRAINRPGGQLLGVNGRDDGPIITSCIRDGVNRISLSGGDVRIFCFGVRLVKRRTLQQVLNLIPEEGKGETFEDALARVRRCIGGGGGDDNADSDSDIEVVADFFGVNLRCPMSGSRIKVAGRFLPCVHMGCFDLDVFVELNQRSRKWQCPICLKNYSVEHVIVDPYFNRITSKMKHCDEEVTEIEVKPDGSWRVKFKRESERRELGELSQWHAPDGSLCPSAVDIKRKMEMLPVKQEGYSDGPAPLKLGIRKNRNGIWEVSKPNTNGLSSSNRQEKVGYQEKNIIPMSSSATGSGRDGDDASVNQDAIGTFDFVANGMELDSISMNVDSGYNFPDRNQSGEGGNNEVIVLSDSDDENDLVITPGPAYSGCQTDGGLTFPLNPPGIINSYNEDPHSIAGGSSGLGLFNDDDEFDTPLWSFPSETPEAPGFQLFRSDADVSGGLVGLHHHSPLNCSPEINGGYTMAPETSMASVPVVPGSTGRSEANDGLVDNPLAFGRDDPSLQIFLPTKPDASAQSGFKNQADMSNGLRSEDWISLRLGDSASGNHGDPATTNGINSSHQMSTREGSMDTTTETASLLLGMNDSRQDKAKKQRSDNPFSFPRQKRSNNEQDHQTRHRSLNKICIILCAGKN
